# From paper PMC11748629, “Unidirectional MCM translocation away from ORC drives origin licensing” (Nature Communications, 2025)
# Amino acid sequences for entries named in this document (tags omitted). A change or cut given only in a name is not applied to a line headed by its entry.
# UniProt P32833: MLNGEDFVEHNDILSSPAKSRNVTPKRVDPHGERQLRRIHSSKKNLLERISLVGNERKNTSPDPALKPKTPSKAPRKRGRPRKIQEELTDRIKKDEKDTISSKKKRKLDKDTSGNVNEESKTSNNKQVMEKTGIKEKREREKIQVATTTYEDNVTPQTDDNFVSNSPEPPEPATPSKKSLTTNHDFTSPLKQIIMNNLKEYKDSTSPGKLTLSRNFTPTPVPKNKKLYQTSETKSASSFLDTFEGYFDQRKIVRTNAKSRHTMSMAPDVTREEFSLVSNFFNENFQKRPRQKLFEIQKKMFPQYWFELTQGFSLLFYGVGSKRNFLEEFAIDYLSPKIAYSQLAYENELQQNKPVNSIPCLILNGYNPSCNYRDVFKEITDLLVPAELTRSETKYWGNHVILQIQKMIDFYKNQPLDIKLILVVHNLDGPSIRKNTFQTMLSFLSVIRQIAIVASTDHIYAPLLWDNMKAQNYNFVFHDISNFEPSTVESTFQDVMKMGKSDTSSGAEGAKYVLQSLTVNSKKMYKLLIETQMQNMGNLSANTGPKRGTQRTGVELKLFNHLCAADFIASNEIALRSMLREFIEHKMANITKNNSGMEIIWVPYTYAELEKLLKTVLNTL
# UniProt P54790: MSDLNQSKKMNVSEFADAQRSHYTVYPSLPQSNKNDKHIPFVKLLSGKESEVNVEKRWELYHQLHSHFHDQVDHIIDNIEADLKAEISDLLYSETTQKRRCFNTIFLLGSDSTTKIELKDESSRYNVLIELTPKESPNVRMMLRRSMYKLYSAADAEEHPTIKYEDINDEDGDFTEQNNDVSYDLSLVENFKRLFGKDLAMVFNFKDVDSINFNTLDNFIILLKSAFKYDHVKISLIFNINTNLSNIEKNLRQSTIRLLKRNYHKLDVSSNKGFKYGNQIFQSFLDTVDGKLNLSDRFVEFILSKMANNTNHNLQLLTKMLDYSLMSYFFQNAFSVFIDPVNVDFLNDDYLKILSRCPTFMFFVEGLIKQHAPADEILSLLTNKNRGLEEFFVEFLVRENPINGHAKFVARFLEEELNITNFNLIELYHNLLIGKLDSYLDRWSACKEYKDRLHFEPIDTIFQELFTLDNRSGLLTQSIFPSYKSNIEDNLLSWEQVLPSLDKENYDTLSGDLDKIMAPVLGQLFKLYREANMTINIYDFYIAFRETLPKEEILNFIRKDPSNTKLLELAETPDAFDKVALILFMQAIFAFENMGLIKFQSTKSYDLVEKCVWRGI
# UniProt P54791: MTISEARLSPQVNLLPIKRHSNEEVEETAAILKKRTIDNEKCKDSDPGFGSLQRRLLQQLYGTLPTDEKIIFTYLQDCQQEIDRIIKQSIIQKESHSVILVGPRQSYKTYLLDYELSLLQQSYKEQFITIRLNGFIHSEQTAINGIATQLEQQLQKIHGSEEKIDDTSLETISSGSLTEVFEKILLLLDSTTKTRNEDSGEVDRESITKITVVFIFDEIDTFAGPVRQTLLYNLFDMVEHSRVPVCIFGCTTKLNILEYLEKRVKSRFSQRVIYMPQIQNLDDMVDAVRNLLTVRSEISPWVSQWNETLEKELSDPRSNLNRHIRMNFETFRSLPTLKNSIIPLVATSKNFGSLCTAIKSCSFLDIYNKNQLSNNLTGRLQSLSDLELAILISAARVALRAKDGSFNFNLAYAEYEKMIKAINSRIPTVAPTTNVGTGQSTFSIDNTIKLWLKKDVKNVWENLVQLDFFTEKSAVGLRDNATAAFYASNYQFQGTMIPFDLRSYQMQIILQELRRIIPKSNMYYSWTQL
# UniProt P50874: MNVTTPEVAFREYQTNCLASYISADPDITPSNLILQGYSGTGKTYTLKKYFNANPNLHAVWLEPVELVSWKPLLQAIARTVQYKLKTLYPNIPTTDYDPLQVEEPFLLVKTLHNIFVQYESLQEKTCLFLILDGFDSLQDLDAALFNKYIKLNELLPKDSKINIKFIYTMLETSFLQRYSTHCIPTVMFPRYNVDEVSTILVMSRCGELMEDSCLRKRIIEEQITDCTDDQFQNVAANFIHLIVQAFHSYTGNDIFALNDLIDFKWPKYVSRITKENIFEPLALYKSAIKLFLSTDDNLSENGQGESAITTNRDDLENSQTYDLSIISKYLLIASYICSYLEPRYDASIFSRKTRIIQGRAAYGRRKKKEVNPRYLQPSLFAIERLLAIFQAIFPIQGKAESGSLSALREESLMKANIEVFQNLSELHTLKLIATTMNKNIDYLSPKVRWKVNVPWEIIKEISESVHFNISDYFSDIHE
# UniProt P38826: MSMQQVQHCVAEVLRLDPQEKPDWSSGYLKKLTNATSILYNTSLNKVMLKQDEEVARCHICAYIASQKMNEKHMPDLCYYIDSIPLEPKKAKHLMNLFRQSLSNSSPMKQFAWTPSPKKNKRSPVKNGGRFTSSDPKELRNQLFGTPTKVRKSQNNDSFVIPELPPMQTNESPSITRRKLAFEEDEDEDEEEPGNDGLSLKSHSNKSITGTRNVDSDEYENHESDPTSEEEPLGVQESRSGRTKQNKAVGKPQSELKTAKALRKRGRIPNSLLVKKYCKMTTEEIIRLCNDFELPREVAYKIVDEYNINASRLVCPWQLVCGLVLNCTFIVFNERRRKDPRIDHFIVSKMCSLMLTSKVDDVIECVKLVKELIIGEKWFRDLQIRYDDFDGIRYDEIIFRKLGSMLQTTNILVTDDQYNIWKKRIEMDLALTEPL
# These are yes or no findings as the source states them, for the method shown. Where a sequence is shown, tags or fusion partners need not be part of it.
# B1: Mcm7 (protein, UniProt P38132 1-845)
# chain: MSAALPSIQLPVDYNNLFNEITDFLVTFKQDTLSSDATRNENEDENLDAENIEQHLLEKGPKYMAMLQKVANRELNSVIIDLDDILQYQNEKFLQGTQADDLVSAIQQNANHFTELFCRAIDNNMPLPTKEIDYKDDVLDVILNQRRLRNERMLSDRTNEIRSENLMDTTMDPPSSMNDALREVVEDETELFPPNLTRRYFLYFKPLSQNCARRYRKKAISSKPLSVRQIKGDFLGQLITVRGIITRVSDVKPAVEVIAYTCDQCGYEVFQEVNSRTFTPLSECTSEECSQNQTKGQLFMSTRASKFSAFQECKIQELSQQVPVGHIPRSLNIHVNGTLVRSLSPGDIVDVTGIFLPAPYTGFKALKAGLLTETYLEAQFVRQHKKKFASFSLTSDVEERVMELITSGDVYNRLAKSIAPEIYGNLDVKKALLLLLVGGVDKRVGDGMKIRGDINVCLMGDPGVAKSQLLKAICKISPRGVYTTGKGSSGVGLTAAVMKDPVTDEMILEGGALVLADNGICCIDEFDKMDESDRTAIHEVMEQQTISISKAGINTTLNARTSILAAANPLYGRYNPRLSPLDNINLPAALLSRFDILFLMLDIPSRDDDEKLAEHVTYVHMHNKQPDLDFTPVEPSKMREYIAYAKTKRPVMSEAVNDYVVQAYIRLRQDSKREMDSKFSFGQATPRTLLGIIRLSQALAKLRLADMVDIDDVEEALRLVRVSKESLYQETNKSKEDESPTTKIFTIIKKMLQETGKNTLSYENIVKTVRLRGFTMLQLSNCIQEYSYLNVWHLINEGNTLKFVDDGTMDTDQEDSLVSTPKLAPQTTASANVSAQDSDIDLQDA
# B2: Saccharomyces cerevisiae Cdc6 (protein, UniProt P09119 1-513)
# chain: MSAIPITPTKRIRRNLFDDAPATPPRPLKRKKLQFTDVTPESSPEKLQFGSQSIFLRTKALLQKSSELVNLNSSDGALPARTAEYEQVMNFLAKAISEHRSDSLYITGPPGTGKTAQLDMIIRQKFQSLPLSLSTPRSKDVLRHTNPNLQNLSWFELPDGRLESVAVTSINCISLGEPSSIFQKIFDSFQDLNGPTLQIKNMQHLQKFLEPYHKKTTFVVVLDEMDRLLHANTSETQSVRTILELFLLAKLPTVSFVLIGMANSLDMKDRFLSRLNLDRGLLPQTIVFQPYTAEQMYEIVIQKMSSLPTIIFQPMAIKFAAKKCAGNTGDLRKLFDVLRGSIEIYELEKRFLLSPTRGSLNSAQVPLTPTTSPVKKSYPEPQGKIGLNYIAKVFSKFVNNNSTRTRIAKLNIQQKLILCTIIQSLKLNSDATIDESFDHYIKAITKTDTLAPLQRNEFLEICTILETCGLVSIKKTKCKGKTKRFVDKIDVDLDMREFYDEMTKISILKPFLH
# Tests used:
# [1] = biological target: T1, Orc1 (Saccharomyces cerevisiae) (UniProt P54784); assay: condition: only in the complex stalled with Mcm5 R549A and ATP (OC1M^Mcm5RA); cryo-EM structure; OC1M^Mcm5RA: 30 nM MH-ARS1-MH DNA, 60 nM ORC, 90 nM Cdc6, 60 nM MCM-Cdt1 (Mcm5 R549A), 2 mM ATP; same buffer; 30 °C, 30 min; conformer 1 at 3.7 Å, conformer 2 at 3.4 Å (Orc1 ATPase domain seen only in conformer 1); both purified
# T1 sequence: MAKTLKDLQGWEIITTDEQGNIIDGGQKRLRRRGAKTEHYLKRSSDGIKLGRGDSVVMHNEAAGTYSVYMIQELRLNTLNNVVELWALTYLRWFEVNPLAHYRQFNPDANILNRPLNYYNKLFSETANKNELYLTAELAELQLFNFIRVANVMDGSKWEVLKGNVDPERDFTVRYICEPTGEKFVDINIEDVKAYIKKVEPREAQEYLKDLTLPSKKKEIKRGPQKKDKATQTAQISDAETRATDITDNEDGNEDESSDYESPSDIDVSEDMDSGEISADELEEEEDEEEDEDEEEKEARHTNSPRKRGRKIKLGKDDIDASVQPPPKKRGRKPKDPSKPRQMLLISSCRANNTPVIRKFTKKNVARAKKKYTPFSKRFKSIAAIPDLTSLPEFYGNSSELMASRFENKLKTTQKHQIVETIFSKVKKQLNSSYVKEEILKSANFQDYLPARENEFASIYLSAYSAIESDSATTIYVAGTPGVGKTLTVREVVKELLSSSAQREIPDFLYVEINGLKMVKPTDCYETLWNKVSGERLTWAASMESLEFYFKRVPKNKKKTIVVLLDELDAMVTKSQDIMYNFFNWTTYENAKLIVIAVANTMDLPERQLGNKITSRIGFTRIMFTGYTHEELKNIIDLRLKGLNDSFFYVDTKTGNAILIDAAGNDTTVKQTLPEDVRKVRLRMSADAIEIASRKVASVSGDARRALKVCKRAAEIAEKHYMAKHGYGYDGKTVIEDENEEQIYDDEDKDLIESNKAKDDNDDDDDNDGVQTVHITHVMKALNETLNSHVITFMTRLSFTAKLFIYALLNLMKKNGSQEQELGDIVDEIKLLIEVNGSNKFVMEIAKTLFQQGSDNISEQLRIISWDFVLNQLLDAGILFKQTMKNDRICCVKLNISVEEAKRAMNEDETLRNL
# [2] = biological target: Origin Recognition Complex (ORC) (Saccharomyces cerevisiae) (UniProt P54784+P32833+P54790+P54791+P50874+P38826); assay: condition: only in the complex stalled with Mcm5 R549A and ATP (OC1M^Mcm5RA); 90 nM Cdc6 in the reaction; cryo-EM structure; OC1M^Mcm5RA: 30 nM MH-ARS1-MH DNA, 60 nM ORC, 90 nM Cdc6, 60 nM MCM-Cdt1 (Mcm5 R549A), 2 mM ATP; same buffer; 30 °C, 30 min; conformer 1 at 3.7 Å, conformer 2 at 3.4 Å (Orc1 ATPase domain seen only in conformer 1); both purified
Binder,binding [1],binding [2]
B1,no binding,–
B2,–,no binding
